Compound in the test: Nc1ncnc2c1ncn2[C@@H]1O[C@H](COP(=O)(O)OP(=O)(O)OP(=O)(O)O)[C@@H](O)[C@H]1O [adenosine triphosphate]
Briefly: NP40-soluble protein abundance relative to vehicle (solubility fold change) (ratio); higher = more soluble protein in presence of ATP. A digest of the protocol:
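In three independent experiments, Jurkat crude lysate made by Dounce homogenisation was treated for 10 min at room temperature and then 3 min at 37 °C with eight concentrations ranging from 0.1 to 10 mM. It was then solubilised with 0.8% NP40 plus benzonase for 60 min at 4 °C and ultracentrifuged. The supernatant was TMT-labelled for LC-MS/MS, and each value is the fold change against the detergent-processed vehicle for the same replicate, using vsn-normalised intensities.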

By UniProt entry, the sequences of proteins in these tests, tags left out. Where a name states a change or a piece, a line headed by the entry shows the natural chain unless it says otherwise.
UniProt Q02040: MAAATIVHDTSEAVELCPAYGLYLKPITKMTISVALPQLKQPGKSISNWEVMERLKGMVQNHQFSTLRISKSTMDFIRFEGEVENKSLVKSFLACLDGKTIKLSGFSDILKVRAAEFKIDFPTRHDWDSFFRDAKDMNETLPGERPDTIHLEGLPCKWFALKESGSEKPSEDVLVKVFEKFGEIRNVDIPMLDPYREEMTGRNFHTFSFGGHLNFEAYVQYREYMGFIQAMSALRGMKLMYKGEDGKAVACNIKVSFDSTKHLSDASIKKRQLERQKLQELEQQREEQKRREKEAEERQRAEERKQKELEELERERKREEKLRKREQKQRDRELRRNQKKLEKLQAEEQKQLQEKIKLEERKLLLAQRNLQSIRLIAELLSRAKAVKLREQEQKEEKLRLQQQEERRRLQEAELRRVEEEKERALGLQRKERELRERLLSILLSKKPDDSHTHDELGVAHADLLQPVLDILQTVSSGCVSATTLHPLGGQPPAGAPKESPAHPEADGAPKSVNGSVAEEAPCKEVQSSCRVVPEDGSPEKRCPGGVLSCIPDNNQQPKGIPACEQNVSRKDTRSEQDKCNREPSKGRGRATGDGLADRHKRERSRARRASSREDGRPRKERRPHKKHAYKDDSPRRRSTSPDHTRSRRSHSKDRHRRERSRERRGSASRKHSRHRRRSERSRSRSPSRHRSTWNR
UniProt Q13045: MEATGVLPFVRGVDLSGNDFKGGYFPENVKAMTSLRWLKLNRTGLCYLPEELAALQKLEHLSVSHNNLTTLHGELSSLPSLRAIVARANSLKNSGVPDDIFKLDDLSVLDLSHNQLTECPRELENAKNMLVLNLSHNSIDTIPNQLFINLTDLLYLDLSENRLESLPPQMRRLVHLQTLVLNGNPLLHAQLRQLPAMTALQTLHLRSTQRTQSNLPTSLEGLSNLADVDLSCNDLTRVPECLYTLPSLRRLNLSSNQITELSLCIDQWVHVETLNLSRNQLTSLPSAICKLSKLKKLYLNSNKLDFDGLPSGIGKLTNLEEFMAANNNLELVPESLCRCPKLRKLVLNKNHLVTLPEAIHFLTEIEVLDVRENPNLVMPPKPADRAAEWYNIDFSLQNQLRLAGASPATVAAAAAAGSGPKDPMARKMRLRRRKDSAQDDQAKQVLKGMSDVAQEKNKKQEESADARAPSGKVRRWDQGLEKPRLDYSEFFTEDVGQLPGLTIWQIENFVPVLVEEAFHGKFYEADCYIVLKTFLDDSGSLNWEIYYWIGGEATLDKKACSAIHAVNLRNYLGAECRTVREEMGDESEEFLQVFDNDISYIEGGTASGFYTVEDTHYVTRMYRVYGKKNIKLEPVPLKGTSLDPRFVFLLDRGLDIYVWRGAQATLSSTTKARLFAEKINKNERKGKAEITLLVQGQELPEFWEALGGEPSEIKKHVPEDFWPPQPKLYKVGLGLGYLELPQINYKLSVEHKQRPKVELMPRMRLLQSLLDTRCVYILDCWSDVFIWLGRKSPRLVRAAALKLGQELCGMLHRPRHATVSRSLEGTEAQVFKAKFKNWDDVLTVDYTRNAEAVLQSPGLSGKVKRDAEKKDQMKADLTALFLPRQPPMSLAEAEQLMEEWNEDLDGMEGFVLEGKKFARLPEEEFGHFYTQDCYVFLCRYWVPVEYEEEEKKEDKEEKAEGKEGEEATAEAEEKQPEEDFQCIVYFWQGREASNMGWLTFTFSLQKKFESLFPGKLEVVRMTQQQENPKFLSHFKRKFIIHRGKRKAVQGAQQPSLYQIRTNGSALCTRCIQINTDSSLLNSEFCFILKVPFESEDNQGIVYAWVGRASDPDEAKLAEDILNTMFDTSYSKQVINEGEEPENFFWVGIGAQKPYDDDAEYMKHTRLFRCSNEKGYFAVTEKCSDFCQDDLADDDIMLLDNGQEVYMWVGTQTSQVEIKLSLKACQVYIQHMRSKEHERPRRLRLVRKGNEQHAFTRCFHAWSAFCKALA
UniProt Q01826: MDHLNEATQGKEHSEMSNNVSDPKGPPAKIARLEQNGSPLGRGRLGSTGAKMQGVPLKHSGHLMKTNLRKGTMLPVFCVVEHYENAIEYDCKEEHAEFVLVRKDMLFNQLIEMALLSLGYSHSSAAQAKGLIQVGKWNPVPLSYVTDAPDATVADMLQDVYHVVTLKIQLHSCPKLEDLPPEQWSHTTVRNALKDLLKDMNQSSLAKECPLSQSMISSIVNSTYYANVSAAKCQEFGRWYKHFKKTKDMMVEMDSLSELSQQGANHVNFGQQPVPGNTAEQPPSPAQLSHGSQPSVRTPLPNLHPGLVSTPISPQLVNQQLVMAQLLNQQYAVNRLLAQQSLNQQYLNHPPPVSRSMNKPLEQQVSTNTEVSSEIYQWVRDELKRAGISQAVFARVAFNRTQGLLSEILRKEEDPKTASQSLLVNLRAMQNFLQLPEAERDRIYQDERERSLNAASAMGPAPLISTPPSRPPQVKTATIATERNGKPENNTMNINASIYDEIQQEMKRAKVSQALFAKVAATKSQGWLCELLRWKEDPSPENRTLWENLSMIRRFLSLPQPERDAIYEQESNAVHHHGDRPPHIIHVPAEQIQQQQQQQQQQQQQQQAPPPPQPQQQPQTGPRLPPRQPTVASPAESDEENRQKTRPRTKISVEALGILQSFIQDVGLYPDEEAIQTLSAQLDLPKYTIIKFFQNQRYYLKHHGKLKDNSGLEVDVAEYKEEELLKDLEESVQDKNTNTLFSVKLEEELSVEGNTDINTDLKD
UniProt Q01415: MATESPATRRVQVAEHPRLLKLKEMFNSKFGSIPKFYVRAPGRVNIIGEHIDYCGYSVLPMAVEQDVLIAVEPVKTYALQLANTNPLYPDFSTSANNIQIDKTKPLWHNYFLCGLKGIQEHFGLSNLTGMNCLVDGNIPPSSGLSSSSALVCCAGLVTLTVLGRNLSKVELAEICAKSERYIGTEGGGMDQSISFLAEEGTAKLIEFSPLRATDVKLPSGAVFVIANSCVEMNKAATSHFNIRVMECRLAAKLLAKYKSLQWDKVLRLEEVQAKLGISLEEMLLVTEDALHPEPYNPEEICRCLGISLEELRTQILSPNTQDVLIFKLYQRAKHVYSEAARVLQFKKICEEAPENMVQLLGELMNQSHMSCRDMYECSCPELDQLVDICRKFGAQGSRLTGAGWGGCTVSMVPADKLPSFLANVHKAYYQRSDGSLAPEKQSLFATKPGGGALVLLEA
UniProt Q05D32: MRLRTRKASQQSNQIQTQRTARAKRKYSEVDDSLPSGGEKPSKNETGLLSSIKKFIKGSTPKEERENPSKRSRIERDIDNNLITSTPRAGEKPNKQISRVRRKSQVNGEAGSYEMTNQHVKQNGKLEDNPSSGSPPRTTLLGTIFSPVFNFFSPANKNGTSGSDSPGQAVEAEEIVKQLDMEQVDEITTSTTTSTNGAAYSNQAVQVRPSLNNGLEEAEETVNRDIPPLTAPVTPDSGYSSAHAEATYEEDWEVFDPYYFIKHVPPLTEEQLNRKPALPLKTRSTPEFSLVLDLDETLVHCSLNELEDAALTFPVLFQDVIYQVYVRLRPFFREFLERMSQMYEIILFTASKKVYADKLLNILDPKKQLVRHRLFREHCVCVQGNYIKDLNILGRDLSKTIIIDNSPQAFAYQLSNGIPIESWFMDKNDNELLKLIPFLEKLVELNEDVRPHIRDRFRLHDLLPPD
UniProt Q13438: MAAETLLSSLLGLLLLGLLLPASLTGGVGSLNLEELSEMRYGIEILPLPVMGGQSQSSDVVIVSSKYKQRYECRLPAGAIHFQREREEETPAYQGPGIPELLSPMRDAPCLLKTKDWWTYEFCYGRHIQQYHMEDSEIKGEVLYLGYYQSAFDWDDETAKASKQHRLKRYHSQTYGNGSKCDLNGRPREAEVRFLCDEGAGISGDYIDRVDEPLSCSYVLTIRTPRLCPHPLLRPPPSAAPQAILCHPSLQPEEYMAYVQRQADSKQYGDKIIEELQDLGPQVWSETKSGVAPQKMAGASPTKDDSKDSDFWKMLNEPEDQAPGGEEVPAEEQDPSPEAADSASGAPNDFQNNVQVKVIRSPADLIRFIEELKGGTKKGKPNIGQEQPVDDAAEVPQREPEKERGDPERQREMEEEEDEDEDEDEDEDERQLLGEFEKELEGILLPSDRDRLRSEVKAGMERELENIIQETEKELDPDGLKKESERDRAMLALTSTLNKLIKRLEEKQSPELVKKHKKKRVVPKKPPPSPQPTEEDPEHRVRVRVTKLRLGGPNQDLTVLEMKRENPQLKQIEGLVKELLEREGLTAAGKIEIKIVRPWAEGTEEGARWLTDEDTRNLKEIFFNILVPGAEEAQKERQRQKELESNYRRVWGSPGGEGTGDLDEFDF
UniProt Q13761, whole entry: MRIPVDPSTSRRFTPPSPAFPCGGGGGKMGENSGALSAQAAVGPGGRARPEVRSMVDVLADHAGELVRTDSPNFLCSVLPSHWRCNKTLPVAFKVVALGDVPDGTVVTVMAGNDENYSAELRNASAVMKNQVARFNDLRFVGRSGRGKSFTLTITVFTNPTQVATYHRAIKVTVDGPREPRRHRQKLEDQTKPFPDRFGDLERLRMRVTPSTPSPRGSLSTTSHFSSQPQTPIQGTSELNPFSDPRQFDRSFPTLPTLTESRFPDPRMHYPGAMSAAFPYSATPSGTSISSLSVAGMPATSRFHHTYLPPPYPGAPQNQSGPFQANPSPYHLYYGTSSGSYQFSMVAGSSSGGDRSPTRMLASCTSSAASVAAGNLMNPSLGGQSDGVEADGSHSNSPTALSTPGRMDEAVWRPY
UniProt Q13795: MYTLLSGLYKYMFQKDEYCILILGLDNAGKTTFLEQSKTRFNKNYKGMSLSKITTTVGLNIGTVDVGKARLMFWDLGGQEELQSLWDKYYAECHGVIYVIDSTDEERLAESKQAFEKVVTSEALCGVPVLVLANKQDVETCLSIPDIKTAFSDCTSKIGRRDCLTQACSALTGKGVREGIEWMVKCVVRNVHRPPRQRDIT
UniProt Q12872: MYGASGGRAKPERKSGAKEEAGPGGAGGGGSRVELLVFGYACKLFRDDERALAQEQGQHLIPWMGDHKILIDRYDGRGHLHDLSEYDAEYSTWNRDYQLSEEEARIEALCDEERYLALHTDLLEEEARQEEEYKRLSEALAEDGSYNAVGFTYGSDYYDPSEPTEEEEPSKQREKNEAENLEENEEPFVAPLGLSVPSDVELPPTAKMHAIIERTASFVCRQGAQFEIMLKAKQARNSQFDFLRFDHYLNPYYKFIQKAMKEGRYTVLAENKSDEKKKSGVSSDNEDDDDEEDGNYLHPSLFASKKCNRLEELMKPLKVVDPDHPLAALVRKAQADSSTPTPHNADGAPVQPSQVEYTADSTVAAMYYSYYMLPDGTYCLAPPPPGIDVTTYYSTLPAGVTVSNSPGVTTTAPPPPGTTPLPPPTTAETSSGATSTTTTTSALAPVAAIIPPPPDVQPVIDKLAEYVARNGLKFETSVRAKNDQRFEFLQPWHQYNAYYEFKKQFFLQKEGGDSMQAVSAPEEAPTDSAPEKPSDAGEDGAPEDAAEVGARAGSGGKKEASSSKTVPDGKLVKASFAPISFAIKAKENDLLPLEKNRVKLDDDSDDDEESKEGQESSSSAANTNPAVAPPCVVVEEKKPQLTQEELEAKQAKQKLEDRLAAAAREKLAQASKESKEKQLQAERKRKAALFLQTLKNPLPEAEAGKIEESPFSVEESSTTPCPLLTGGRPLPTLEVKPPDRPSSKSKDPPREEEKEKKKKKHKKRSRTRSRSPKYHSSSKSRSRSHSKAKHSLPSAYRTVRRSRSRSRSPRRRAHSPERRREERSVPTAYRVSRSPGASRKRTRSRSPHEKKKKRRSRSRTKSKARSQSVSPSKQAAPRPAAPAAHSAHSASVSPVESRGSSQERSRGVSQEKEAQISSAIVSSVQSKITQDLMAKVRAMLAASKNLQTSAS

± gives the standard deviation of the averaged measurements. Only a part is listed here, and it is no random draw. Most entries show no effect beyond the scatter of the controls.

Regarding UniProt Q02040, the NP40-soluble protein abundance reads like this: (concentration: 0.1mM) 0.997 ± 0.033; (concentration: 0.5mM) 1.21 ± 0.18; (concentration: 1mM) 1.4 ± 0.24; (concentration: 2mM) 1.56 ± 0.34; (concentration: 4mM) 1.8 ± 0.45; (concentration: 6mM) 2.02 ± 0.41. The NP40-soluble protein abundance by setting is: (concentration: 8mM) 2.19 ± 0.54; (concentration: 10mM) 2.43 ± 0.62.
As to UniProt Q13045 and related entries, the NP40-soluble protein abundance runs as follows: (concentration: 0.1mM) 1.02 ± 0.04; (concentration: 0.5mM) 1.04 ± 0.04; (concentration: 1mM) 1.01 ± 0.039; (concentration: 2mM) 0.985 ± 0.042; (concentration: 4mM) 0.974 ± 0.03; (concentration: 6mM) 0.949 ± 0.058. Moreover, the NP40-soluble protein abundance (concentration: 8mM) is 0.976 ± 0.026 and the NP40-soluble protein abundance (concentration: 10mM) was found to be 0.968 ± 0.051.
Consider UniProt Q01826 and related entries, for which the NP40-soluble protein abundance (concentration: 0.1mM) stood at 0.967 ± 0.015; the NP40-soluble protein abundance (concentration: 0.5mM) was found to be 0.975 ± 0.032; the NP40-soluble protein abundance (concentration: 1mM) was 0.952 ± 0.051; the NP40-soluble protein abundance (concentration: 2mM) is 0.96 ± 0.023; the NP40-soluble protein abundance (concentration: 4mM) stood at 0.919 ± 0.039; the NP40-soluble protein abundance (concentration: 6mM) worked out at 0.96 ± 0.031. Further, the NP40-soluble protein abundance by setting is: (concentration: 8mM) 0.928 ± 0.02; (concentration: 10mM) 0.922 ± 0.011.
As to GALK2 (UniProt Q01415), the NP40-soluble protein abundance (concentration: 0.1mM) stood at 0.996 ± 0.071; the NP40-soluble protein abundance (concentration: 0.5mM) was 0.965 ± 0.076; the NP40-soluble protein abundance (concentration: 1mM) was found to be 0.938 ± 0.068; the NP40-soluble protein abundance (concentration: 2mM) worked out at 0.975 ± 0.073; the NP40-soluble protein abundance (concentration: 4mM) turned out to be 0.985 ± 0.012; the NP40-soluble protein abundance (concentration: 6mM) was 0.86 ± 0.12. Besides, the NP40-soluble protein abundance runs as follows: (concentration: 8mM) 0.956 ± 0.066; (concentration: 10mM) 0.968 ± 0.037.
Take CTDSPL2 (UniProt Q05D32): the NP40-soluble protein abundance (concentration: 0.1mM) amounted to 0.999 ± 0.11; the NP40-soluble protein abundance (concentration: 0.5mM) was determined as 1.07 ± 0.042; the NP40-soluble protein abundance (concentration: 1mM) is 1.13 ± 0.11; the NP40-soluble protein abundance (concentration: 2mM) came to 1.13 ± 0.07; the NP40-soluble protein abundance (concentration: 4mM) was 1.27 ± 0.09; the NP40-soluble protein abundance (concentration: 6mM) was 1.32 ± 0.082. Besides, the NP40-soluble protein abundance reads like this: (concentration: 8mM) 1.33 ± 0.14; (concentration: 10mM) 1.47 ± 0.03.
UniProt Q13438 and related entries: the NP40-soluble protein abundance was determined as 0.994 ± 0.023 (concentration: 0.1mM); 0.998 ± 0.058 (concentration: 0.5mM); 0.953 ± 0.036 (concentration: 1mM); 0.953 ± 0.049 (concentration: 2mM); 0.94 ± 0.056 (concentration: 4mM); 0.99 ± 0.069 (concentration: 6mM). Further, the NP40-soluble protein abundance (concentration: 8mM) turned out to be 0.939 ± 0.031 and the NP40-soluble protein abundance (concentration: 10mM) came out at 0.952 ± 0.045.
UniProt Q13761 and related entries: the NP40-soluble protein abundance by setting is: (concentration: 0.1mM) 1.17 ± 0.28; (concentration: 0.5mM) 1 ± 0.027; (concentration: 1mM) 1.07 ± 0.2; (concentration: 2mM) 1.18 ± 0.35; (concentration: 4mM) 1.18 ± 0.3; (concentration: 6mM) 1.19 ± 0.31. In addition, the NP40-soluble protein abundance was determined as 1.13 ± 0.23 (concentration: 8mM) and 1.18 ± 0.13 (concentration: 10mM).
For the target UniProt Q13795 and related entries, the NP40-soluble protein abundance worked out at 1.005 ± 0.0087 (concentration: 0.1mM); 0.991 ± 0.023 (concentration: 0.5mM); 0.95 ± 0.024 (concentration: 1mM); 0.961 ± 0.015 (concentration: 2mM); 0.932 ± 0.025 (concentration: 4mM); 0.962 ± 0.046 (concentration: 6mM). Also, the NP40-soluble protein abundance by setting is: (concentration: 8mM) 0.9416 ± 0.0073; (concentration: 10mM) 0.945 ± 0.039.
Turning to UniProt Q12872 and related entries, the NP40-soluble protein abundance reads like this: (concentration: 0.1mM) 1.02 ± 0.054; (concentration: 0.5mM) 1.16 ± 0.062; (concentration: 1mM) 1.24 ± 0.083; (concentration: 2mM) 1.33 ± 0.049; (concentration: 4mM) 1.5 ± 0.049; (concentration: 6mM) 1.77 ± 0.068. Further, the NP40-soluble protein abundance reads like this: (concentration: 8mM) 1.77 ± 0.066; (concentration: 10mM) 1.93 ± 0.075.
Regarding UniProt Q0VDD8-4, the NP40-soluble protein abundance came out at 0.862 ± 0.08 (concentration: 0.1mM); 0.84 ± 0.023 (concentration: 0.5mM); 0.837 ± 0.098 (concentration: 1mM); 0.884 ± 0.028 (concentration: 2mM); 0.9026 ± 0.0016 (concentration: 4mM); 0.9241 ± 0.0037 (concentration: 6mM). The NP40-soluble protein abundance was found to be 0.956 ± 0.13 (concentration: 8mM) and 1.06 ± 0.059 (concentration: 10mM).

Values taken from the supplement of paper PMC6411743.
